# This is one part of the list. Shown are side measurements of this screen, not its main read-out; they come without a call. Most of these compounds were active or inconclusive in the main read-out, so they are no random draw. Words in brackets tell the shape of the fitted curve; partial curves, single points and poor fits give uncertain potencies.
# Assay: qHTS Assay to Find Inhibitors of Chronic Active B-Cell Receptor Signaling
# Settings: ABC-DLBCL IkBa-CBG/CBR reporter, luminescence ratio (green luciferase fused to IkBa over red control in TMD8 lymphoma cells), 4 h
# In short: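 Cell line TMD8 (human ABC DLBCL), stably expressing tet-inducible CBG68-IkBa fusion and CBR; IMDM/0.5% FBS; cpd up to 46 uM; dox induction, 4 h, 37C/5% CO2; dual luminescence; green/red ratio; MG132 control.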
# [1] = measured here: CBR red luminescence, cell number
# [2] = measured here: IkBa-CBG green luminescence
compound,measurement,setting,value
CCN(CC(=O)Nc1c(F)cccc1F)C(=O)CCCc1c[nH]c2ccccc12,AC50,[1],"11.2 µM [falling, partial curve]"
CCN(CC)C(=O)c1[nH]cnc1C(=O)Nc1ccc(Cl)cc1,AC50,[1],"0.731 µM [rising, partial curve, poor fit]"
O=C(CCN1CCOCC1)c1ccc(N2CCCCC2)cc1,AC50,[1],"20.6 µM [falling, single point]"
same,AC50,[2],"20.6 µM [rising, partial curve, poor fit]"
CCOC(=O)Cn1c(=S)[nH]c2c(oc3ccc(Cl)cc32)c1=O,AC50,[1],"0.146 µM [rising, full curve, poor fit]"
Oc1[nH]c2ccccc2c1N=Nc1ccccc1,AC50,[1],"35.5 µM [falling, single point]"
CCOC(=O)c1c(O)c2ccccc2n(C)c1=O,AC50,[1],"12.6 µM [falling, partial curve, poor fit]"
COC(=O)C1CCN(C(=O)/C=C/c2ccc(OC)cc2)CC1,AC50,[1],"0.092 µM [falling, full curve]"
C=CCn1c(N2CCCCCC2)nc2c1c(=O)n(C)c(=O)n2C,AC50,[1],"0.2 µM [falling, full curve, poor fit]"
C=C(C)COc1ccc(-c2nc(N)nc(C)c2-c2ccc(OC)cc2)c(O)c1,AC50,[1],"6.51 µM [rising, single point]"
CCCCNC(=O)N(CC)c1c(N)n(Cc2ccccc2)c(=O)[nH]c1=O,AC50,[1],"14.1 µM [rising, single point]"
Clc1ccc(OCCOCCNCc2ccccc2)cc1Cl,AC50,[1],"35.5 µM [falling, single point]"
O=C(CSc1ncnc2ccccc12)Nc1ccc2c(c1)OCO2,AC50,[1],"29.1 µM [falling, single point]"
O=C1CCC/C(=N/NC(=O)c2ccc(NS(=O)(=O)c3cccs3)cc2)C1,AC50,[1],"8.91 µM [falling, partial curve]"
CCOC(=O)c1[nH]c(CN2CCN(c3ccc(OC)cc3)CC2)c(C(=O)OCC)c1C,AC50,[1],"0.708 µM [rising, full curve, poor fit]"
COC(=O)c1ccc(CN2C(=O)NC3(CCC(C)CC3)C2=O)cc1 (stereo unspecified),AC50,[1],"35.5 µM [falling, single point]"
COc1ccc2nc(SCC(=O)C(C)(C)C)[nH]c2c1,AC50,[1],"0.794 µM [rising, full curve, poor fit]"
CCC(C)NC(=O)CSc1nc2n[nH]c(C)c2c(=N)n1-c1cc(Cl)ccc1C (stereo unspecified),AC50,[1],"0.708 µM [rising, partial curve, poor fit]"
O=C(NCc1ccccn1)C(=O)Nc1cccc2ccccc12,AC50,[1],"7.08 µM [falling, partial curve]"
O=C(Nc1nnc(C2CC2)s1)c1cccs1,AC50,[1],"12.6 µM [falling, partial curve]"
COC(=O)C1=C(C)NC(=O)/C1=C\c1ccc2c(c1)OCO2,AC50,[1],"11.2 µM [falling, partial curve]"
O=C(Nc1cccc(Cl)c1)Nc1cc(S(=O)(=O)N2CCOCC2)ccc1N1CCCC1,AC50,[1],"13 µM [rising, partial curve, poor fit]"
CC(C)CC1(C)NC(=O)N(CC(=O)Nc2cccc(S(=O)(=O)N(C)c3ccccc3)c2)C1=O (stereo unspecified),AC50,[1],"1.58 µM [falling, partial curve, poor fit]"
C[C@H](CO)N1C[C@H](C)[C@@H](CN(C)Cc2ccc(C(=O)O)cc2)Oc2c(NC(=O)C3CC3)cccc2C1=O,AC50,[1],"23.1 µM [rising, partial curve, poor fit]"
Cc1cn(C)c(CC(=O)N2CCN(c3cccc(Cl)c3)CC2)c1C(=O)O,AC50,[1],"12.6 µM [falling, single point]"
Cc1ccc(-c2nc(C#N)c(N3CCC(C)CC3)o2)cc1,AC50,[1],"3.16 µM [rising, partial curve, poor fit]"
COc1ccc(Nc2nnc(-c3ccc(O)cc3)c3ccccc23)cc1,AC50,[1],"12.6 µM [falling, single point]"
OCCC1CN(Cc2c(O)ccc3ccccc23)CCN1CCc1ccccc1 (stereo unspecified),AC50,[1],"0.501 µM [falling, full curve, poor fit]"
C/C=C\C(=O)Nc1cccc(C2=NOC3(C2)C[C@@H](C(N)=O)N(C(=O)CC(c2ccccc2)c2ccccc2)C3)c1 (stereo partly specified),AC50,[1],"35.5 µM [falling, single point]"
CCOC(=O)C1(C)C(C(=O)OC)=C(c2ccc(OC)cc2)c2ccccc2N1C(=O)OC (stereo unspecified),AC50,[2],"14.6 µM [falling, partial curve, poor fit]"
CCN1CCN(Cc2ccc(NC(=O)c3cc(NC(=O)c4cc(-c5ccc(OC)cc5)n[nH]4)cc(OC)c3)cc2C(F)(F)F)CC1,AC50,[1],"11.2 µM [falling, partial curve]"
COc1ccc(OC)c(-c2nnc3n2N=C(c2ccc(OC)c(OC4CCCC4)c2)CS3)c1,AC50,[1],"4.61 µM [falling, single point]"
same,AC50,[2],"9.2 µM [falling, single point]"
O=C(CN1C(=O)C2CC=CCC2C1=O)Nc1nc(-c2ccc(F)cc2)cs1 (stereo unspecified),AC50,[1],"9.2 µM [falling, partial curve]"
O=C(Nc1nc(-c2ccncc2)cs1)C1c2ccccc2Oc2ccccc21,AC50,[1],"29.1 µM [falling, single point]"
COc1ccc(NC(=O)c2c(NCc3sccc3C)sc3c2CCCC3)c(OC)c1,AC50,[1],"14.1 µM [rising, single point]"
Cc1ccc(NC(=O)COC(=O)C(NS(=O)(=O)c2ccc(Cl)cc2)C(C)O)cc1C (stereo unspecified),AC50,[1],"7.31 µM [falling, partial curve]"
CC(=O)Nc1ccc(NC(=O)c2ccc(-c3ccccc3Cl)o2)cc1,AC50,[1],"20.6 µM [rising, partial curve, poor fit]"
CCOc1ccc(NC(=O)c2c(NC(=O)CNCCN3CCOCC3)sc3c2CCC3)cc1,AC50,[1],"15.8 µM [falling, single point]"
Cc1ccc(NC(=O)c2cccc(N3C(=O)C4C5C=CC(C5)C4C3=O)c2)cc1C (stereo unspecified),AC50,[1],"6.31 µM [falling, single point]"
Cc1ccccc1NC(=O)CCN1CCCC1,AC50,[1],"6.31 µM [rising, single point]"

# Part of the list above, bar-delimited:
compound | measurement | setting | value
O=C1CCC/C(=N/NC(=O)c2ccc(NS(=O)(=O)c3cccs3)cc2)C1 | AC50 | [1] | 8.91 µM [falling, partial curve]
CCOC(=O)c1[nH]c(CN2CCN(c3ccc(OC)cc3)CC2)c(C(=O)OCC)c1C | AC50 | [1] | 0.708 µM [rising, full curve, poor fit]
COC(=O)c1ccc(CN2C(=O)NC3(CCC(C)CC3)C2=O)cc1 (stereo unspecified) | AC50 | [1] | 35.5 µM [falling, single point]

# — PubChem BioAssay AID493014 (National Center for Advancing Translational Sciences (NCATS), 2011)
